Earlier results, collected in patent US7312302B2, “Compositions for the detection of enzyme activity in biological samples and methods of use thereof” (Oncolmmunin, Inc., priority 1997, dated 2007).
At least one structure is not confirmed: it was looked up by name or label, or the drawing left a doubt.

Settings: cited from earlier work

O=C1OC2(c3ccc(O)cc3Oc3cc(O)ccc32)c2ccccc21 [fluorescein]
concentration above which ground-state dimerization of free dye in solution was observed: higher than 0.74 M
